In the supplement of paper PMC3334620:
The full ranking holds about 33,000 sequences; the median of “E-score (-0.5 to 0.5)” is about -0.015, and the highest 2% start at about 0.3. The list shows a part of the results.

Biological target: T1, Abf1 (UniProt P14164)
T1 sequence: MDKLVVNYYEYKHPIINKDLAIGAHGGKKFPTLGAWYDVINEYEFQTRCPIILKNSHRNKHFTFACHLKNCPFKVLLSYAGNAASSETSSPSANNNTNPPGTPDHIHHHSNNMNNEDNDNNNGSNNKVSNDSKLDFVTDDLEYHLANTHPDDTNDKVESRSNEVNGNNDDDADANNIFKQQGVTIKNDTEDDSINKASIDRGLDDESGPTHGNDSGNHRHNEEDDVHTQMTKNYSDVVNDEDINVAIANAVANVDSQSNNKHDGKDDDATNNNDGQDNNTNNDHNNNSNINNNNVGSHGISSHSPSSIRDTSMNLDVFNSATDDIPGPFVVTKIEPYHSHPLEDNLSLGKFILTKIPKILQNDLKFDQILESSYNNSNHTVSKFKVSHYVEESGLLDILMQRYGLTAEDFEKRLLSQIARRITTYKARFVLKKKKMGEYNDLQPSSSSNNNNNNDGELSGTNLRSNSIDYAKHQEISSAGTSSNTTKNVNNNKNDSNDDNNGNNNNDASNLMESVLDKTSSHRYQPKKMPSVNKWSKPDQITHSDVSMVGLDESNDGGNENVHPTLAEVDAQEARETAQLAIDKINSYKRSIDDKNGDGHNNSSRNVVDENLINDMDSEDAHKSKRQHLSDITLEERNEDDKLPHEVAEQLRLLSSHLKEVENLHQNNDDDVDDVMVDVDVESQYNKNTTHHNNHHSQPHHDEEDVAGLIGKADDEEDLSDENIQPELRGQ
Assay: PBM E-score (8-mer binding enrichment) (E-score (-0.5 to 0.5)); higher = stronger / more preferred TF binding
Details: protein concentration: 200 nM; construct: GST-full length
Outline: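 Full-length yeast transcription factors or their DNA-binding domains, GST-tagged and expressed with PURExpress, were applied at about 100-200 nM to universal all-10-mer Agilent arrays. These arrays had been made double-stranded by primer extension on fresh or once-stripped slides. Detection used fluorescent anti-GST, normalisation used masliner, and E-scores for ungapped eight-base words pooled with reverse complements came from the Universal PBM Analysis Suite.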

Sequence	PBM E-score
CCTGCCAA	-0.288
AGAGGACG	-0.0391
CTACTTGC	0.0196
CTATACAC	-0.0734
CAAAGGAC	-0.244
ATTTTTAA	0.162
CGATGGTA	-0.0203
AGTCAAGC	-0.221
ACGCGCCA	-0.154
GCAACACC	-0.109
GACGATGC	0.231
AATAACGG	0.126
CCACCCAA	-0.252
AGCTACGG	0.0966
TCGCGAGA	0.198
GCCGTTAC	0.00322
CTCCTGTC	0.00524
ATAAGGAG	-0.0372
GGTGGCAC	-0.0175
CTCCATCA	0.0333
CGAAACCG	-0.0352
GCCACAGA	-0.124
CAACTATC	-0.0598
AATGGGCA	-0.086
CTGTGCAC	0.0718

Sequence	PBM E-score
CAACAAGG	-0.0973
AAAAATGA	0.229
CTACGATA	0.173
GTGGCGCA	-0.108
AGACTGTA	0.00213
ATCACGTC	0.336
AATGAAAA	0.0544
ACTGTCGG	-0.0555
AATGGTGG	-0.323
TCCTGAAA	0.0559
CCGTCCAC	0.149
AGGTTATC	0.0463
AGATCGGG	-0.215
ATAAAAGA	-0.0436
GCTCTAAA	-0.169
CCTATTCC	-0.139
GCGTCGGA	-0.111
AGGATCCG	-0.0941
ATGTCAAC	0.105
TAAACACA	-0.105
AGGTTCGA	0.186
AATGATTG	0.152
ACAAAGCC	0.093
CGGTTTAG	-0.00596
AGCAGAAT	0.141

A stretch taken from the entries so far:
Sequence	PBM E-score
AGATCGGG	-0.215
ATAAAAGA	-0.0436
GCTCTAAA	-0.169
CCTATTCC	-0.139
GCGTCGGA	-0.111

The list goes on:

Sequence	PBM E-score
TCCAGCAA	-0.0696
AGTCGGAA	-0.166
GGGTGACA	0.257
GACGGACC	0.153
AGGGAACT	-0.244
GCTATGGA	-0.106
ATGAATAA	0.012
CTCCTTCC	-0.389
ACGCAGAT	0.0745
CAAGGGCG	-0.109
ATCTGGGA	-0.0723
CGCGCATC	-0.126
ACGCTTGG	-0.0437
CTGCTTGA	-0.184
GAATCAGA	-0.122
AGATAGAC	0.00693
ATATATGC	0.0515
CAAGATTC	-0.0169
ACAGTATC	0.0404
AGCTAACT	-0.0886
ATATCATC	0.408
CTAAACCA	-0.106
ACTGCGCT	-0.222
TCGTACCA	0.322
AATGTGAA	0.0771

Sequence	PBM E-score
ACGGATTA	0.175
CCAGTCTC	-0.222
AACCTCAC	-0.00261
CCACCACG	-0.0143
GCCAAGCC	-0.163
ATGTTCCA	0.0963
AGGCTTCA	-0.183
ACTCTGGA	0.0602
CCTAGAAG	-0.0953
CTGAATTC	-0.101
AGATAGTG	0.178
GCTACCAA	-0.00544
GCCGCGCC	-0.214
ACTGGAGG	-0.167
GCCTCGAA	0.00063
TAGGCCTA	0.0048
AAAGCCTG	-0.296
GCGTTGCA	-0.132
ATAGGGAC	-0.145
GGCAAGAA	-0.0781
GGGGCACA	-0.292
GAGCAGGA	0.1
GATACGCA	0.128
ACCCTGAA	-0.11
AGCAACGA	-0.00891

Pulled one by one from the list above, 2 records:
Sequence	PBM E-score
CTCCTGTC	0.00524
ATGTCAAC	0.105

The list continues.

Sequence	PBM E-score
ATTCATGC	-0.0459
GTTCGCTA	0.0655
GATCAACC	0.005
GTTCTTTA	-0.00903
TAAGAACA	0.165
ACACAGTG	0.0503
AAGGGTGG	-0.158
ATTGAGGA	-0.0212
ACGTATGC	0.014
TCTAATAA	0.112
ATATATAG	0.142
AGCCACCA	-0.14
TCGTTTAA	0.341
AGAATTTA	0.11
CTGGGATA	-0.0232
AATGATGA	0.282
AAGCATGA	0.141
CCAGGGGA	-0.302
CTTACCGA	0.00077
TCGCGACA	0.217
TCGCTCAA	0.0924
GGCGATAC	0.0593
TCGCAAAA	-0.0599
CATTGGAA	0.0279
ACCATCAG	-0.222

Exported as comma-separated lines: part of the list above
Sequence,PBM E-score
ATTGAGGA,-0.0212
CTGGGATA,-0.0232
GGCGATAC,0.0593
ACCATCAG,-0.222

Later entries

Sequence	PBM E-score
CCCTGAGC	-0.143
ACTTCACC	0.115
AGCTTATA	-0.188
ACTATAGG	0.0727
CAAAGTAG	-0.0106
AATCTCCA	-0.0618
CGGGGGAC	-0.162
CCTAAGTC	-0.062
AGTGAAAT	-0.0399
ACGGTGGA	0.145
CCTGAACA	-0.0952
GAGCCCAC	-0.0917
AGGCAGAC	-0.143
GACTTCTA	-0.0781
ACTCGACT	-0.138
GGGCGTAA	-0.136
CTGGCCTC	-0.288
CCTCTAAG	-0.0807
GTGATTGA	0.16
CGCAAACC	-0.124
GGTTGAAA	-0.00421
AAGTGTAC	-0.183
AACTTCAG	-0.105
AGGAGTTC	-0.265
ACCTGCTG	-0.00869

Sequence	PBM E-score
AAGGAAGA	-0.195
AAACCCGA	0.0153
AGGCATGC	-0.0181
CCCATGTA	-0.00446
CGCGAGAC	0.154
TATGCCCA	-0.111
AAATGCAC	-0.0914
ATCAAGTG	-0.0333
TAGTGTAA	0.157
GGCCTCTA	-0.0781
GAGATAGA	-0.0247
TCCATGGA	0.0226
CCATATTA	0.167
CTACTGAA	-0.0599
TACTTCAA	0.0378
CGGGCAAG	-0.003
GTCGGGAA	0.0638
CCCCCGTA	-0.0535
CCTACCTC	-0.177
ATGACCCA	-0.00947
CCCATAGC	-0.0876
CTATATTA	0.182
CCCTGGAG	-0.15
ATTGTAGG	-0.00207
AGGGGACA	-0.0441

Sequence	PBM E-score
CCAAATTC	0.0534
ATTACAGA	0.0621
AAGAAGTG	0.133
ATACGTAC	0.165
CGTTCATC	0.138
CATGTCTC	0.0543
CAAGGTAC	-0.0308
AGAGTTGG	-0.102
GGTGGCAA	-0.133
CGTCTGAG	0.221
CAACGTAA	-0.0145
ATAATTGC	-0.0145
CGATAAGA	0.0404
CACTACTG	-0.109
AATAACAA	0.013
GAAGGCCA	-0.164
CCAAGCCA	-0.0609
AAGAAAAG	-0.0972
TCGTACAA	0.402
CCGGCTGA	0.0032
CACTACCG	0.0572
GGGGCGTA	-0.232
CCAGCTCA	-0.0487
ACTTTGTC	0.217
ACCATTCA	-0.0516

Sequence	PBM E-score
ACAGCCGC	-0.223
CAACGCGG	-0.0899
ATTGACCG	-0.033
CCCAGATA	-0.232
ATCTTATA	0.177
GGTTCAAC	0.0604
AAGATAGT	0.00969
ACAAGCCG	0.0151
GAACACGA	0.265
ATAGAGTA	0.0724
TCGACACA	-0.0348
GGTGCGAA	-0.0663
CGCGCAAA	0.0477
AAGGGCCA	-0.172
ATAACATA	0.179
ACTGCGTA	-0.0404
CGCCCGAG	-0.203
CTGGGTAA	-0.0825
ACTCCTAA	-0.042
TCCACTAA	0.0233
CGACGGTC	0.173
GGTTGGAC	-0.202
AAGTGCTA	-0.145
AGCGTCGA	-0.00081
CAAACAGC	-0.104

Sequence	PBM E-score
AATGGCCA	-0.157
AGCTTTCA	0.0515
ACCCCGAT	-0.0491
GATCATGA	0.227
CTCATCAC	0.217
GCTGCATA	0.153
CACCTTGC	-0.04
TGGCTACA	-0.0535
CAAACAAA	0.0701
AAGGGAGA	-0.0764
AGGGCCTA	-0.185
ACGCTTTC	-0.079
CTGGCATC	-0.326
TCCGGTCA	-0.00303
AATGTGCT	0.143
AATCCGCA	0.0369
CTATGGTC	-0.169
CTGGCGTA	-0.056
AAGGTATC	0.129
ATACACGC	0.0882
CTGCCCCA	0.0404
ATCGGGTG	0.158
ATTGTACG	0.256
GTCCAGTA	-0.0693
AACACAAT	0.0216

Sequence	PBM E-score
GCTATGAA	-0.0376
GAAACTAA	0.0636
ATCCGAGA	-0.0475
CTACCTGC	-0.0913
CACGACCA	0.153
AGGTATAG	-0.1
CTGAACAC	0.0466
AGCCATCC	-0.0585
GCGTAGGA	-0.086
CGCCCAGC	-0.136
GAGTACCC	-0.167
AGGCCGTC	0.0126
CACAGCCA	-0.272
AGCTGGGA	-0.0373
AAATGACC	0.215
AAAACTTT	-0.115
AACGGCCA	0.13
CACTGGTC	-0.0801
ATATTAAG	0.112
GCAACGCC	-0.152
AGTTGCTC	-0.131
GCGTCAAA	0.0641
CGGTTACC	0.00897
ACACGCGT	0.0699
GAATGCCA	-0.122

Sequence	PBM E-score
AGTAGCGG	0.0593
CGAAACGC	-0.179
GGCGGGGA	-0.0761
CCGATCTA	-0.207
ACAGTGGT	-0.0354
ATCCTTTC	-0.0367
GGCCTAAA	-0.131
ACCAGTGG	-0.261
ACAGACAG	-0.0188
GACGTCGA	-0.026
ACTGTCGA	0.00425
CGAATACC	-0.0202
AGATCCAA	-0.00396
ATTGATCC	0.0261
TAACGTTA	0.236
TCGCGCGA	0.175
AGAACTAG	-0.208
GGGTCGAA	-0.15
CGCAGAAG	-0.101
ATACCGGA	-0.0534
AGGCCGGG	-0.2
AGATCTCC	-0.153
CAAGTGCG	-0.0242
ATGTGACA	0.288
CCCAATCA	-0.0424

Sequence	PBM E-score
CGTAGGTA	0.142
CTATCGCA	-0.0586
GCCTTGTA	-0.0394
CTGTGCTA	-0.00739
AAACTCAC	-0.136
ACGACTGC	0.13
GAGCCACA	-0.15
ATAGATTG	-0.0569
CGCCAAAG	-0.111
CATGCCTA	-0.227
CCCTCGCC	-0.185
TTGCCAAA	0.0748
AACCCTGA	-0.00511
TACAAACA	0.0936
CCGGCACC	0.0532
CTTATGCC	-0.0544
CACGCGCG	0.0534
AACGCCAG	-0.0605
ATCGATTG	0.14
GCAAGGGC	-0.372
ACAAGAAG	-0.0978
ATAAGAGG	0.0476
GTGGCAGA	0.00546
ATGTGCCG	0.1
CATCCCGG	-0.0328

Sequence	PBM E-score
ACCTGTAG	-0.299
GAACATGA	-0.103
CCGCTTAC	-0.189
CGAAATTA	0.234
ACGTTATC	-3e-05
AGCACTGA	-0.353
GCCACCGA	-0.0995
AGACCGAC	-0.00992
AACAGCCT	-0.102
ATCCTGAC	0.0365
TGGAGTAA	0.0103
CGAAATCC	0.0314
CCCAGGGA	-0.439
CGAGTATA	-0.0629
ACATATGC	-0.204
TCTTGCAA	-0.0161
ATATTTTA	0.181
CGCTAACA	-0.0116
AGGTAAAG	-0.0766
